Data taken from the supplement of paper PMC10849652.
Some of the results follow.

Chains of the proteins cited; added tags and fusions are not shown. Lines headed by an entry give the natural chain unless they say otherwise; changes in a name come on top.
UniProt Q9NRR6: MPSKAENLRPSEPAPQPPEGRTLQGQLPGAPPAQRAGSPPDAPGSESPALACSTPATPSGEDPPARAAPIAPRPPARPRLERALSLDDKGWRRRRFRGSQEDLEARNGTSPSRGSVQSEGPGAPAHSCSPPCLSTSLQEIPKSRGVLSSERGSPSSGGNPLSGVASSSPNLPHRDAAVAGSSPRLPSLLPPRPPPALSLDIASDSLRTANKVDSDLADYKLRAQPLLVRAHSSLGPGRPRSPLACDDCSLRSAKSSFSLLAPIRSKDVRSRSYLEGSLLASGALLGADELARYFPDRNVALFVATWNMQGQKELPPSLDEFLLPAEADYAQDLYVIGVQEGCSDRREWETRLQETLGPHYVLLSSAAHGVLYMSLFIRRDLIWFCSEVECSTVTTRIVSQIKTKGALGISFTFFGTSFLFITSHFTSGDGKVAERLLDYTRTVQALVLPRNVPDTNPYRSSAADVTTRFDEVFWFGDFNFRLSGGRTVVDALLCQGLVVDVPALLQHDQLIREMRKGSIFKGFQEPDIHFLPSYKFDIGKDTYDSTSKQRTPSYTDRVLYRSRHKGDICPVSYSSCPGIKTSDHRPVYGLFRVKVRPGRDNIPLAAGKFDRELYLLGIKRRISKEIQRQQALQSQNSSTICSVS
UniProt Q9UG01, whole entry, looked up: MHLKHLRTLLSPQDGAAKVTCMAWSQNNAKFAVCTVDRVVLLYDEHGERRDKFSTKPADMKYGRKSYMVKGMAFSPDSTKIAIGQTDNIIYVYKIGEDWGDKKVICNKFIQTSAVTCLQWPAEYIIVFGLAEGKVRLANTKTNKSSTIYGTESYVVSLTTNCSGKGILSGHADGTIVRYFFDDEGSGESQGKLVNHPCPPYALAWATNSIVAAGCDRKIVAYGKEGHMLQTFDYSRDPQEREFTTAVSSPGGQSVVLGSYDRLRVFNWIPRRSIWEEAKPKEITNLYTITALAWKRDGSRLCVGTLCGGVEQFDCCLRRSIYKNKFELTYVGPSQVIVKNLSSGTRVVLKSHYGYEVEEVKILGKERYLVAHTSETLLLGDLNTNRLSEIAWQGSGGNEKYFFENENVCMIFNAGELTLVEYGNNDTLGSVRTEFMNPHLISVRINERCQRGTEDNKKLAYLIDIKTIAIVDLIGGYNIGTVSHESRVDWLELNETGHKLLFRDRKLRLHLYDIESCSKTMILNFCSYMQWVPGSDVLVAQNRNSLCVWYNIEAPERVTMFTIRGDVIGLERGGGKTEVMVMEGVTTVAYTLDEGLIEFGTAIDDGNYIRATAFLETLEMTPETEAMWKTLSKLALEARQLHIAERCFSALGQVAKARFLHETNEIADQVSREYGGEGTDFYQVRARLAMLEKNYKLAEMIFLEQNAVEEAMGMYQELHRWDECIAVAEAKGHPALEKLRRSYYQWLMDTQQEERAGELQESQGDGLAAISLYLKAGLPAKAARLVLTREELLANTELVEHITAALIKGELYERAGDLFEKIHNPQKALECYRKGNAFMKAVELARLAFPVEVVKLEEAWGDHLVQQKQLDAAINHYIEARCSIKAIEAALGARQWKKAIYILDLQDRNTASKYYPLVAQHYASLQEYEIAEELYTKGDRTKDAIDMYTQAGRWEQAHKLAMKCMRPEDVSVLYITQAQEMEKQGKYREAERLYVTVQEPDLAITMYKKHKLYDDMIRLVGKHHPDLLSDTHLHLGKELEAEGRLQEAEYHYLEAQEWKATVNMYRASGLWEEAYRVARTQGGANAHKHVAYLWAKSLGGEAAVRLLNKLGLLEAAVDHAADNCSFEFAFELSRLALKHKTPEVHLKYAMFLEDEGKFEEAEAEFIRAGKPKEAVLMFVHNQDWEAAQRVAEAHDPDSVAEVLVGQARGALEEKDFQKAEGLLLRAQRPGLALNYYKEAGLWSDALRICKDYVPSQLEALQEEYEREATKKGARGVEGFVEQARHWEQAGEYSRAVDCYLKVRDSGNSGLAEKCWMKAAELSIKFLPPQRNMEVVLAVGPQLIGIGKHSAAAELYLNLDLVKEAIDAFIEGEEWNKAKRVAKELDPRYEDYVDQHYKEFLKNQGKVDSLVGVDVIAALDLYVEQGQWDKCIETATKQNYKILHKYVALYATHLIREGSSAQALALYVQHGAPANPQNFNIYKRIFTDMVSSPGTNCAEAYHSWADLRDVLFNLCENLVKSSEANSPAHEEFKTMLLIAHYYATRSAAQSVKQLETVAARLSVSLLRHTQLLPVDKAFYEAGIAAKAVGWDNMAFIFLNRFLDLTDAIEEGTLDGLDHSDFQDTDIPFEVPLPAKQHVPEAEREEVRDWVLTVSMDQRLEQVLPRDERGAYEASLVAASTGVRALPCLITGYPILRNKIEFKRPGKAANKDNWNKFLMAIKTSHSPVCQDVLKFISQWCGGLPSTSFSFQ
UniProt Q9NQS7, whole entry, looked up: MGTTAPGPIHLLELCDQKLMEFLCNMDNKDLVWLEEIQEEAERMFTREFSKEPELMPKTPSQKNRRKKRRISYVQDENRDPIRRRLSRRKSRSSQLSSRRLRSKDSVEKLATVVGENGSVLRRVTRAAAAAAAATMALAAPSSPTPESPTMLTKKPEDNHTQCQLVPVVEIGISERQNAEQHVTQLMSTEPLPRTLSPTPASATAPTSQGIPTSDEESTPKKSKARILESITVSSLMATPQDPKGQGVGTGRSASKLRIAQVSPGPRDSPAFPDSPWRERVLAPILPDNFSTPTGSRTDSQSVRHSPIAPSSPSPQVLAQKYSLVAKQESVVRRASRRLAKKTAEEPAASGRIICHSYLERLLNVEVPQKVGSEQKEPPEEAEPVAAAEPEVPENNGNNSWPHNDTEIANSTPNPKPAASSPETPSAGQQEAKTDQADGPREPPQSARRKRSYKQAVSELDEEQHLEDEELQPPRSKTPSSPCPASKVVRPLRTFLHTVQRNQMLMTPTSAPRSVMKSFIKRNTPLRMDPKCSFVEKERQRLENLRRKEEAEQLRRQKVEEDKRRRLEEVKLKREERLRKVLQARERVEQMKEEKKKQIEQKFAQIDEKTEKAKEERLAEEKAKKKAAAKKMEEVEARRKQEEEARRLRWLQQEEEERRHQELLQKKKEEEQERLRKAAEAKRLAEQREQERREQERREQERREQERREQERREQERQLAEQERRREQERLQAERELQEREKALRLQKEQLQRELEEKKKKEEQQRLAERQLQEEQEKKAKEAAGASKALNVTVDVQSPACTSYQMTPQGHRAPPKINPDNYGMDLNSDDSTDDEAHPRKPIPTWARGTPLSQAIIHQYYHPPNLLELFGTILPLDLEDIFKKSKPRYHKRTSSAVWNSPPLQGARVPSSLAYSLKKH
UniProt P0DMQ5: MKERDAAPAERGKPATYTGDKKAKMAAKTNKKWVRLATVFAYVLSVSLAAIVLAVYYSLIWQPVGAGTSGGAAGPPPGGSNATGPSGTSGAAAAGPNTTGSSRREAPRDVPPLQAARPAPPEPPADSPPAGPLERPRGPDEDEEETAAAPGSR
UniProt P58166: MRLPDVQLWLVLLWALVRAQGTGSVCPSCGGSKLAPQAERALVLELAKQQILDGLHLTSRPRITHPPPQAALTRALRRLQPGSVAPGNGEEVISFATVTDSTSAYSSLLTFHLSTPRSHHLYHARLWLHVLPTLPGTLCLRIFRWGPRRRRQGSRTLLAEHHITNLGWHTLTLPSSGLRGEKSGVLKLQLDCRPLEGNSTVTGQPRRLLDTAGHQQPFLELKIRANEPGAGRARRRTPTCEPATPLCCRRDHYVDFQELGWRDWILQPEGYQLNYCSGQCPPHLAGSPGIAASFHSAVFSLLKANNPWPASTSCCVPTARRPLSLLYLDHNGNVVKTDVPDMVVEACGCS
IGKV3D-7, A0A0C4DH55, UniProt A0A0C4DH55, whole entry, looked up: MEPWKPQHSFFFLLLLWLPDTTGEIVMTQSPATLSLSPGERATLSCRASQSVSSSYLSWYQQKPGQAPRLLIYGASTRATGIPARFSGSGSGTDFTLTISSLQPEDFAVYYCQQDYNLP
UniProt Q13261, whole entry, looked up: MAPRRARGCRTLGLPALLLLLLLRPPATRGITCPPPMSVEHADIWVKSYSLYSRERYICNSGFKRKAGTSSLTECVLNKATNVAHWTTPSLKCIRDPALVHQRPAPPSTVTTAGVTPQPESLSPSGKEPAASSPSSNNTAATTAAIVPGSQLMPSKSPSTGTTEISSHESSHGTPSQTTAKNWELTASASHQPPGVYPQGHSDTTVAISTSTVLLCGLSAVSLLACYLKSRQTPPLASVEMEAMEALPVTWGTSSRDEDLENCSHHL
UniProt Q86VF2: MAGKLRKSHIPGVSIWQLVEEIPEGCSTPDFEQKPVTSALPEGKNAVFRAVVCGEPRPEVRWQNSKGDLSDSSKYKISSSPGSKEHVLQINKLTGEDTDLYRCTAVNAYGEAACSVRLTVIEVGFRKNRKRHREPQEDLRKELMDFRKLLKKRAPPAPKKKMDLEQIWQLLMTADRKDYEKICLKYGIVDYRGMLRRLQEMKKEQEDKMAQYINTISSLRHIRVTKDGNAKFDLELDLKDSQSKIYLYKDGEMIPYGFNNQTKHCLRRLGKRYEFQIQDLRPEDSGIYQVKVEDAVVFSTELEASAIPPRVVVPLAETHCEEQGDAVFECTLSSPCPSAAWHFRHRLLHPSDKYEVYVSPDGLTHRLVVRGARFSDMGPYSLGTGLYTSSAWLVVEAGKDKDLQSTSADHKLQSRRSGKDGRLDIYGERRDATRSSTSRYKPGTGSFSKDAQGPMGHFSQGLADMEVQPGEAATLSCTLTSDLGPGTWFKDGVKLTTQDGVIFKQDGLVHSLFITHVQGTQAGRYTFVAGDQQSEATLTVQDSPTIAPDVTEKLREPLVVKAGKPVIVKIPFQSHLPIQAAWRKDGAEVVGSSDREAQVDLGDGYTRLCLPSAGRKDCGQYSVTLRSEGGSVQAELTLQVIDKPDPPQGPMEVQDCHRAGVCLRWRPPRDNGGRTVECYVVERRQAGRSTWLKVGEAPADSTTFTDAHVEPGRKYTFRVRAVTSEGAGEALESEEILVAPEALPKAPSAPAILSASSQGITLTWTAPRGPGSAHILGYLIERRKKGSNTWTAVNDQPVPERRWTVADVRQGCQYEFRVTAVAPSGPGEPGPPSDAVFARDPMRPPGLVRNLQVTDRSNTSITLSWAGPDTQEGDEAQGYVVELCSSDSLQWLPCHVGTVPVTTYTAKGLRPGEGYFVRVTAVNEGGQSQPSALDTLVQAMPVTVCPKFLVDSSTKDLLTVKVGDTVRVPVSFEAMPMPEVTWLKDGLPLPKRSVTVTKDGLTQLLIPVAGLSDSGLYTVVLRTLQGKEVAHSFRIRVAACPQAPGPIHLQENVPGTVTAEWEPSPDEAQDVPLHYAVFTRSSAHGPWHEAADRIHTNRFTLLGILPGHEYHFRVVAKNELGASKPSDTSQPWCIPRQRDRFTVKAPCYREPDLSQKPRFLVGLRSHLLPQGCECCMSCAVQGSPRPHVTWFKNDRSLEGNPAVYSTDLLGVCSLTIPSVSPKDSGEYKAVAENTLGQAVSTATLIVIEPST
UniProt Q13099: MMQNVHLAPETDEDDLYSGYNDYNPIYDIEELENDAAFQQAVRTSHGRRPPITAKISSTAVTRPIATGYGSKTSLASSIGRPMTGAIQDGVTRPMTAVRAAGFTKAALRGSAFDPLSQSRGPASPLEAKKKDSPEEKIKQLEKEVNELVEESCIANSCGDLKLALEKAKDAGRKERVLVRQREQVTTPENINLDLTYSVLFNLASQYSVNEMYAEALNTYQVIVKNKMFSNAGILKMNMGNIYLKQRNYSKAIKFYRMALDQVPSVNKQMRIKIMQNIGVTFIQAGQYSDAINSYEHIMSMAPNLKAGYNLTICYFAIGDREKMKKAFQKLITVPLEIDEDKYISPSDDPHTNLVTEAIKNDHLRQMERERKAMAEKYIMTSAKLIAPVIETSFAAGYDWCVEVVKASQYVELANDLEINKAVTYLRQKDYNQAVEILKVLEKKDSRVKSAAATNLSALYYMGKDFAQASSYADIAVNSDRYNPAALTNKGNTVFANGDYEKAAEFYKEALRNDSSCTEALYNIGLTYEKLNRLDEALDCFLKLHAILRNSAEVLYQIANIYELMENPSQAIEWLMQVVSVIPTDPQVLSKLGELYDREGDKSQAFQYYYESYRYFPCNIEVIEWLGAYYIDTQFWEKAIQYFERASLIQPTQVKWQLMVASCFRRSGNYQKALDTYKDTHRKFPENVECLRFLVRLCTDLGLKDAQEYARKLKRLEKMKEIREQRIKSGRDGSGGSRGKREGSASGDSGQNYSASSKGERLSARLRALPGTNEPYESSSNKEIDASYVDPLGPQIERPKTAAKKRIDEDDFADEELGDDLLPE
UniProt Q96G21: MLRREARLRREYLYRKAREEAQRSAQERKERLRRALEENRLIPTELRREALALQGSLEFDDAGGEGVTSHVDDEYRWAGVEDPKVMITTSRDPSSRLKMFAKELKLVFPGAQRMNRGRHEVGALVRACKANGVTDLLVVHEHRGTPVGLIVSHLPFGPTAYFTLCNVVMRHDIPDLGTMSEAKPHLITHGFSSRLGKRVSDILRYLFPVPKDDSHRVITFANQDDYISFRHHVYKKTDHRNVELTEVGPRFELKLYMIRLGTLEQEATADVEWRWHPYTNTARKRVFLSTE

Experiments:
Assay in all cases: log2 fold change, soluble protein after heating vs DMSO (PISA); higher = thermal stabilisation; K562 lysate, 10 uM; active = over 0.2 and 3.5 SD of the protein, either way, in both replicates (recomputed)
[1] = compound: C=CC(=O)N1CCC[C@@H](n2nc(-c3ccc(Oc4ccccc4)cc3)c3c(N)ncnc32)C1 [ibrutinib]
How it was run: (§1)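 Soluble protein was defined as the supernatant remaining after 21,000xg for 90 min, following pooling of heated aliquots and adjustment to 0.5% NP-40 at 4°C. Before that, crude K562 extract at 1 mg/mL protein in PBS pH 7.4 with 1 mM MgCl2 was treated with 10 μM compound for 30 min and heated for 3 min across 48°C-58°C. Quantification used TMTpro 16plex LC-MS/MS with channel sums equalised, and values are log-two fold changes in thermal stability relative to solvent controls from duplicates.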

[2] = compound: CC(=O)c1cnc2ccc(-c3cc(Cl)c(O)c(Cl)c3)nc2c1N[C@H]1CC[C@H](CN(C)C)CC1
How it was run: as §1

[3] = compound: CC(C)C1=C2N=C(C=C(N2N=C1)NCC3=CC=CC=C3)NCCCCCCN
How it was run: as §1

[4] = compound: CC1=C(C2=C(C=C1)C(=O)C3=CC=CC=C3N2CCCN)C
How it was run: as §1

[5] = compound: CC1=CC=C(C=C1)SC2=C3C=C(SC3=CN=C2)C(=O)N
How it was run: as §1

[6] = compound: CCCS(=O)(=O)Nc1ccc(F)c(C(=O)c2c[nH]c3ncc(Cl)cc23)c1F
How it was run: as §1

[7] = compound: CCN(CCCOc1ccc2c(Nc3cc(CC(=O)Nc4cccc(F)c4)[nH]n3)ncnc2c1)CCOP(=O)(O)O [barasertib]
How it was run: as §1

[8] = compound: CC[C@@H]1C(=O)N(C)c2cnc(Nc3ccc(C(=O)NC4CCN(C)CC4)cc3OC)nc2N1C1CCCC1
How it was run: as §1

[9] = compound: CC[C@@H]1C(=O)N(C)c2cnc(Nc3ccc(C(=O)N[C@H]4CC[C@H](N5CCN(CC6CC6)CC5)CC4)cc3OC)nc2N1C(C)C [volasertib]
How it was run: as §1

[10] = compound: CCn1cc(-c2ccnc3[nH]c(-c4cccc(CN(C)C)c4)cc23)c(-c2ccc(NC(=O)N(C)C)cc2)n1
How it was run: as §1

[11] = compound: CN1CCC(CNc2ccc3ncc(-c4cccc(OC(F)(F)F)c4)n3n2)CC1
How it was run: as §1

[12] = compound: CN1CCN(CCOc2cc(OC3CCOCC3)c3c(Nc4c(Cl)ccc5c4OCO5)ncnc3c2)CC1 [saracatinib]
How it was run: as §1

[13] = compound: CC1=C(C(CC(=O)N1)C2=CC=C(C=C2)C(F)(F)F)C(=O)NC3=C(C=C4C(=C3)C=NN4)F
How it was run: as §1

[14] = compound: CC1=C(C=C(C=C1)NC(=O)C2=CC(=CC=C2)C(C)(C)C#N)NC3=CC4=C(C=C3)N=CN(C4=O)C
How it was run: as §1

[15] = compound: CN1CCN(c2nc(C3=C(c4c[nH]c5ccccc45)C(=O)NC3=O)c3ccccc3n2)CC1 [sotrastaurin]
How it was run: as §1

[16] = compound: CC(C)(C)Cn1c(N)nc2ccc(-c3[nH]c(C(C)(C)C)nc3-c3ccc(F)cc3)nc21 [ralimetinib]
How it was run: as §1

[17] = compound: CC(C)(O)CC(=O)NCCn1ccc2ncnc(Nc3ccc(Oc4cccc(C(F)(F)F)c4)c(Cl)c3)c21
How it was run: as §1

[18] = compound: CC1=C(C=C(C=C1)NC(=O)C2=CC(=CC=C2)N(C)C)NC(=O)C3=CC=C(C=C3)O
How it was run: as §1

[19] = compound: CCCS(=O)(=O)Nc1ccc(F)c(C(=O)c2c[nH]c3ncc(-c4ccc(Cl)cc4)cc23)c1F [vemurafenib]
How it was run: as §1

[20] = compound: CCn1c(C(=O)N(C2CC2)C2CC2)cc2c3c(ncn3C)c(Nc3cc(C)n(C)n3)nc21
How it was run: as §1

Measured: log2 fold change

HYOU1, A0A494C039
inactive: [1] -0.125 | [2] 0.045 | [3] 0.084 | [4] -0.13 | [5] 0.123 | [6] 0.091 | [7] -0.11 | [8] 0.065 | [9] 0.058 | [10] -0.269 | [11] 0.014 | [12] -0.085

IFT52 (UniProt Q9Y366)
inactive: [3] 0.026 | [13] 0.171 | [14] 0.097 | [15] -0.166

INPP5E (UniProt Q9NRR6)
inactive: [3] -0.016 | [13] -0.053 | [14] 0.128 | [10] -0.009 | [11] 0.043 | [15] 0.018

IGKV3-20 (UniProt P01619)
inactive: [4] -0.906 | [10] 0.469 | [11] -0.48 | [12] -0.945

INPP5D (UniProt Q92835)
inactive: [3] 0.06

IFT172 (UniProt Q9UG01)
inactive: [16] -0.123 | [17] 0.185 | [3] -0.305 | [13] 0.036 | [4] -0.083 | [18] 0.171 | [19] 0.026 | [20] 0.392 | [12] 0.189

INCENP (UniProt Q9NQS7)
inactive: [4] 0.124 | [12] -0.077

INO80B (UniProt Q9C086)
inactive: [3] 0.287 | [4] -0.327 | [12] 0.022

IGF2BP2 isoform 6 (UniProt Q9Y6M1)
inactive: [2] -0.031 | [5] -0.016 | [6] -0.003 | [9] -0.153

IFNAR1 (UniProt P17181)
inactive: [4] 0.025 | [14] 0.027 | [10] 0.037 | [11] 0.003 | [12] 0.04 | [15] 0.1

IFT122 isoform 5 (UniProt Q9HBG6)
inactive: [16] 0.101 | [17] 0.033 | [13] -0.035 | [4] -0.011 | [14] -0.331 | [18] -0.018 | [19] 0.069 | [20] -0.096 | [12] 0.181 | [15] 0.119

HUWE1 isoform 2 (UniProt Q7Z6Z7)
inactive: [2] -0.068 | [5] -0.442 | [6] 0.159 | [8] -0.201 | [9] -0.231

INO80 (UniProt Q9ULG1)
inactive: [2] -0.004 | [14] 0.071 | [5] -0.152 | [6] 0.231 | [9] -0.02 | [10] -0.02 | [11] -0.021 | [15] 0.081

INAFM2 (UniProt P0DMQ5)
inactive: [4] -0.019 | [14] 0.025 | [12] 0.159 | [15] 0.072

ING2 (UniProt Q9H160)
inactive: [14] -0.022 | [8] 0.082 | [15] 0.005

INHBE (UniProt P58166)
inactive: [3] -0.028 | [13] 0.089 | [14] 0.042 | [10] -0.035 | [11] 0.082 | [15] 0.045

IGHA2 (UniProt P01877)
inactive: [16] 0.303 | [17] 0.371 | [18] 0.289 | [20] 0.115 | [10] 0.884 | [11] -1.25

IGKV3D-7, A0A0C4DH55
inactive: [16] -0.223 | [17] 0.151 | [3] 0.866 | [13] 1.82 | [18] -0.006 | [20] 0.024 | [10] 0.578 | [11] -0.597

IL15RA (UniProt Q13261)
inactive: [14] -0.033 | [15] -0.153

IFIT3 (UniProt O14879)
inactive: [16] 0.124 | [17] -0.123 | [3] -0.059 | [4] 0.081 | [14] 0.121 | [18] -0.143 | [8] -0.228 | [20] 0.111 | [12] 0.112 | [15] 0.113

IGFN1 isoform 5 (UniProt Q86VF2)
inactive: [2] -0.269 | [5] 0.092 | [6] 0.009 | [9] 0.038

IDUA (UniProt P35475)
inactive: [14] -0.14 | [10] -0.012 | [11] -0.085 | [15] 0.243

IGKV1D-33, A0A2Q2TTZ9
inactive: [10] 0.919 | [11] -0.326

IFI16 (UniProt Q16666)
inactive: [3] -0.001

HTRA3 (UniProt P83110)
inactive: [13] 0.008 | [10] -0.274 | [11] 0.442

HUWE1 (UniProt H0Y659)
inactive: [16] -0.033 | [17] -0.39 | [4] -0.194 | [18] 0.057 | [20] -0.083 | [12] -0.264

ILF3 (UniProt K7EKJ9)
inactive: [2] 0.007 | [14] 0.029 | [5] -0.04 | [6] 0.089 | [9] 0.011 | [15] 0.084

IGHM isoform 2 (UniProt P01871)
inactive: [13] 1.86 | [4] -2.18 | [10] 0.804 | [11] -0.352 | [12] -1.59

IFT88 (UniProt Q13099)
inactive: [16] 0.134 | [17] -0.009 | [13] 0.099 | [14] 0.066 | [18] -0.066 | [20] 0.1 | [15] -0.172

IL6ST (UniProt P40189)
inactive: [10] 0.351 | [11] -0.417

IGHV3-72, A0A4W8ZXM2
inactive: [16] -0.003 | [17] -0.236 | [3] 0.947 | [18] -0.266 | [20] 0.196 | [10] 0.306 | [11] -0.101

IGSF1 isoform 4 (UniProt Q8N6C5)
inactive: [19] -0.033 | [8] 0.067 | [10] 0.006 | [11] 0.082

IMP4 (UniProt Q96G21)
inactive: [2] 0.055 | [14] -0.021 | [5] 0.062 | [6] 0.046 | [9] -0.074 | [10] -0.03 | [11] 0.031 | [15] 0.015

HSPBP1 (UniProt K7EMM7)
inactive: [4] 0.06 | [12] -0.024

IL13RA1 (UniProt P78552)
inactive: [14] -0.066 | [10] -0.148 | [11] 0.043 | [15] -0.055

HTN3 (UniProt P15516)
inactive: [10] -0.047 | [11] 0.024

2 consecutive records out of the list so far, for reference:
IDUA (UniProt P35475)
inactive: [14] -0.14 | [10] -0.012 | [11] -0.085 | [15] 0.243

IGKV1D-33, A0A2Q2TTZ9
inactive: [10] 0.919 | [11] -0.326
